The assay deals with LX-1 lung xenograft sc, nude mice, tumor weight. Put plainly: NCI In Vivo Anticancer Drug Screen. Data for tumor model Human Lung LX-1 Xenograft (subcutaneous) in NU/NU Swiss (nude) mice. The conditions noted are these: T/C endpoint: optimum tumor weight change, schedule: Q04DX003 (ip), higher T/C = larger tumour. Here is the method:
The antitumor activity of compounds was measured in mice bearing transplantable tumors. Survival or tumor size were measured and the results are expressed as the measurement made in the treated group (T) divided by the measurement made in the vehicle treated control group (C). The tumor model used in this assay is Human Lung LX-1 Xenograft (subcutaneous) in NU/NU Swiss (nude) mice

The mark [1] stands for this setting: dose: 400.0 mg/kg/injection, vehicle: saline with Tween-80.
Where [2] appears, read: dose: 800.0 mg/kg/injection, vehicle: saline with Tween-80.
Where [3] appears, read: dose: 50.0 mg/kg/injection, vehicle: Klucel (hydroxypropylcellulose) (HPC).
Setting [4] is: dose: 200.0 mg/kg/injection, vehicle: Klucel (hydroxypropylcellulose) (HPC).
Where [5] appears, read: dose: 400.0 mg/kg/injection, vehicle: Klucel (hydroxypropylcellulose) (HPC).
The mark [6] stands for this setting: dose: 400.0 mg/kg/injection, vehicle: saline.
Where [7] appears, read: dose: 100.0 mg/kg/injection, vehicle: Klucel (hydroxypropylcellulose) (HPC).
The mark [8] stands for this setting: dose: 1600.0 mg/kg/injection, vehicle: saline with Tween-80.

The list does not hold the whole screen: it is rich in T/C values a quarter to a half above the control, in often repeated tests (any T/C) and in doses without a T/C. Other doses and runs of a compound stand elsewhere. T/C gives the treated animals as a percentage of the vehicle group. Schedules are NCI's codes, read here as Q, the interval in days (D) or hours (H), X, the number of doses. Some values lie below zero, which means that the treated tumours became smaller. Some T/C values are followed by the survivors on the day toxicity was checked, most often the fifth; where none is given, no animal had died by that day. Some doses have a count of surviving animals in place of a T/C: the source holds a T/C of zero for them, seemingly a mark for toxic or unscored doses. Survivors were counted at the toxicity check, usually on the fifth day, unless a day is given; later deaths do not show. Some doses were run more than once; their values stand side by side, smallest first.

Consider `COc1ccc(C(N)=O)cc1N=NN(C)C`, for which the T/C is 29 % of control (dose: 37.5 mg/kg/injection, vehicle: Klucel (hydroxypropylcellulose) (HPC), evaluated on day 33); 53 % of control (dose: 37.5 mg/kg/injection, vehicle: Klucel (hydroxypropylcellulose) (HPC), evaluated on day 34); 34 % of control (dose: 37.5 mg/kg/injection, vehicle: Klucel (hydroxypropylcellulose) (HPC), evaluated on day 36); 68 % of control (dose: 37.5 mg/kg/injection, vehicle: Klucel (hydroxypropylcellulose) (HPC), evaluated on day 37); 18 % of control (dose: 75.0 mg/kg/injection, vehicle: Klucel (hydroxypropylcellulose) (HPC), evaluated on day 33); 22 % of control (dose: 75.0 mg/kg/injection, vehicle: Klucel (hydroxypropylcellulose) (HPC), evaluated on day 34). Further, the T/C runs as follows: (dose: 75.0 mg/kg/injection, vehicle: Klucel (hydroxypropylcellulose) (HPC), evaluated on day 36) 52 % of control; (dose: 75.0 mg/kg/injection, vehicle: Klucel (hydroxypropylcellulose) (HPC), evaluated on day 37) 11 % of control; (dose: 150.0 mg/kg/injection, vehicle: Klucel (hydroxypropylcellulose) (HPC), evaluated on day 34) 12 % of control; (dose: 150.0 mg/kg/injection, vehicle: Klucel (hydroxypropylcellulose) (HPC), evaluated on day 36) 10 % of control. For the same compound, the survivor count by setting is: (dose: 150.0 mg/kg/injection, vehicle: Klucel (hydroxypropylcellulose) (HPC)) 4 of 7 on day 34 and 3 of 5 on day 37; (dose: 300.0 mg/kg/injection, vehicle: Klucel (hydroxypropylcellulose) (HPC)) 0 of 5 on day 36, 0 of 5 on day 37, 0 of 7 on day 34, 1 of 5 on day 36.

`O=C1N(Cl)C(=O)C(c2ccc(Cl)cc2)(c2ccc(Cl)cc2)N1Cl`: the survivor count by setting is: under setting [1], 3 of 5 on day 36; under setting [2], 0 of 5 on day 36.

With `CN(C)N=Nc1cn[nH]c1C(N)=O`, the survivor count is, setting by setting: under setting [3], 3 of 5 on day 36; under setting [4], 1 of 5 on day 34 and 2 of 5 on day 35; under setting [5], 0 of 5 on day 34.

As to `COC(OC(CO)C(O)S(=O)(=O)O)C(O)S(=O)(=O)O` (centres undefined), the survivor count (dose: 100.0 mg/kg/injection, vehicle: saline) is listed as 2 of 4 on day 41; the survivor count under setting [6] is given as 2 of 5 on day 41; the survivor count (dose: 800.0 mg/kg/injection, vehicle: saline) was 0 of 5 on day 41; the survivor count (dose: 1600.0 mg/kg/injection, vehicle: saline) is recorded as 0 of 5 on day 41; the survivor count (dose: 1600.0 mg/kg/injection, vehicle: suspension in saline) is given as 0 of 5 on day 36.

As for `O=C1c2c(O)ccc(O)c2C(=O)c2c(NCCNCCO)ccc(NCCNCCO)c21`, for the setting “dose: 2.5 mg/kg/injection, vehicle: water”, the survivor count was 0 of 5 on day 36 and 2 of 5 on day 36.

In the case of `ClCC[N+]12CC[N+](CCCl)(CC1)C2`, the survivor count under setting [2] was 1 of 5 on day 35.

For the compound `O=[N+]([O-])/C=C\c1ccc2c(c1)OCO2`, the survivor count by setting is: under setting [3], 3 of 5 on day 37; under setting [7], 3 of 5 on day 37; under setting [4], 2 of 5 on day 37.

As for `CN(C)N=Nc1cccc(C(N)=O)c1`, the T/C is, setting by setting: (dose: 50.0 mg/kg/injection, vehicle: Klucel (hydroxypropylcellulose) (HPC), evaluated on day 32) 2 % of control [4 of 5 alive on day 34]; (dose: 50.0 mg/kg/injection, vehicle: Klucel (hydroxypropylcellulose) (HPC), evaluated on day 33) -28 % of control; (dose: 50.0 mg/kg/injection, vehicle: Klucel (hydroxypropylcellulose) (HPC), evaluated on day 34) 7 % of control; (dose: 100.0 mg/kg/injection, vehicle: Klucel (hydroxypropylcellulose) (HPC), evaluated on day 32) -39 % of control [4 of 5 alive on day 34]; (dose: 100.0 mg/kg/injection, vehicle: Klucel (hydroxypropylcellulose) (HPC), evaluated on day 33) -59 % of control. The survivor count under setting [3] is on record as 3 of 5 on day 35; the survivor count under setting [7] is 2 of 5 on day 35 and 2 of 5 on day 36; the survivor count under setting [4] is reported as 0 of 5 on day 35, 1 of 5 on day 34, 1 of 5 on day 35; the survivor count under setting [5] is given as 0 of 5 on day 34.

Turning to `COC1C(O)CC(OC2CC(OC3CC(O[C@@H]4C(=O)c5c(cc6cc(OC7CC(OC8CC(O)C(O)C(C)O8)C(O)C(C)O7)c(C)c(O)c6c5O)C[C@H]4[C@H](OC)C(=O)[C@@H](O)[C@@H](C)O)OC(C)C3O)OC(C)C2O)OC1C` (some centres undefined), the survivor count by setting is: (dose: 3.0 mg/kg/injection, vehicle: saline) 2 of 5 on day 38 and 3 of 5 on day 36; (dose: 6.0 mg/kg/injection, vehicle: saline) 0 of 5 on day 36 and 2 of 5 on day 38; (dose: 12.0 mg/kg/injection, vehicle: saline) 0 of 5 on day 36.

As to `Cc1c(N)nc([C@H](CC(N)=O)NC[C@H](N)C(N)=O)nc1C(=O)N[C@H](C(=O)N[C@H](C)[C@@H](O)[C@H](C)C(=O)N[C@H](C(=O)NCCc1nc(-c2nc(C(=O)NCCC[S+](C)C)cs2)cs1)[C@@H](C)O)C(OC1OC(CO)C(O)C(O)C1OC1OC(CO)C(O)C(OC(N)=O)C1O)c1cnc[nH]1` (some centres undefined), the survivor count is on record as 1 of 5 on day 35 (dose: 32.0 mg/kg/injection, vehicle: saline) and 0 of 5 on day 35, 0 of 5 on day 36, 3 of 5 on day 36 (dose: 64.0 mg/kg/injection, vehicle: saline).

With `CC(=O)Oc1ccc[nH]c1=O`, the survivor count reads like this: (dose: 200.0 mg/kg/injection, vehicle: saline with Tween-80) 3 of 5 on day 35 and 3 of 5 on day 36; under setting [8], 2 of 5 on day 35.

With `C[C@]12CC[C@@H]3c4ccc(OC(=O)Cc5ccc(N(CCCl)CCCl)cc5)cc4CC[C@H]3[C@@H]1CC[C@@H]2OC(=O)Cc1ccc(N(CCCl)CCCl)cc1`, the survivor count is, setting by setting: under setting [1], 2 of 5 on day 38; under setting [8], 1 of 5 on day 38. Further, the T/C (dose: 800.0 mg/kg/injection, vehicle: saline with Tween-80, evaluated on day 38) is 125 % of control.

On to `Cn1cnc([N+](=O)[O-])c1[Se]c1nc(N)nc2nc[nH]c12`, for which the survivor count (dose: 200.0 mg/kg/injection, vehicle: water) is recorded as 1 of 5 on day 36.

In the case of `COc1cc2c[n+](C)c3c4cc5c(cc4ccc3c2cc1OC)OCO5`, the survivor count (dose: 160.0 mg/kg/injection, vehicle: saline with Tween-80) is listed as 0 of 5 on day 35.

As for `COc1cc([C@@H]2c3cc4c(c(O)c3C[C@H]3COC(=O)[C@@H]32)OCO4)cc(OC)c1O`, the survivor count (dose: 12.5 mg/kg/injection, vehicle: saline) is recorded as 3 of 5 on day 36 and the survivor count (dose: 25.0 mg/kg/injection, vehicle: saline) was 0 of 5 on day 36.

Regarding `COc1cccc2c1C(=O)c1c(O)c3c(c(O)c1C2=O)C[C@@](O)(C(=O)CO)C[C@@H]3OC1CC(N)C(O)C(C)O1` (some centres undefined), the survivor count (dose: 8.0 mg/kg/injection, vehicle: water) is reported as 0 of 5 on day 35.

Consider `N=C(N)Sc1ccccn1`, for which the T/C is 140 % of control (dose: 100.0 mg/kg/injection, vehicle: saline, evaluated on day 33) and 148 % of control (dose: 200.0 mg/kg/injection, vehicle: saline, evaluated on day 33). For the same compound, the survivor count under setting [6] is on record as 1 of 5 on day 35.

For the origin of these results see PubChem BioAssay AID262 (DTP/NCI, 2004).
